This assay has as its target Full length GST-FliI (C. pneumoniae). Kind of assay: pull-down; only the target purified.

These are yes or no findings as the source states them, for the method shown. In cells and extracts the contact can be indirect. Where a sequence is shown, tags or fusion partners need not be part of it.

The source of these data is publication PMC2830194.

B1: His-Cpn0706 (protein, UniProt Q9Z7J9 1-168)
chain: MAKYPLEPVLAIKKDRVDRAEKVVKEKRRLLEIEQEKLREKEAERDKVKNHYMQKIQQLRDLLDEGTTSDAVLQIKSYIKVVAVQLSEEEEKVNKQKEVVLAASKELEKAEVNLAKRRKEEEKTRLHKEEWMKEALKEEARAEEKEQDEMGQLLFQLRQKKKRESGGS
Take B1: the binding entry is given as “no binding”.
